Results are given in words; binding and its absence hold for the method and conditions named.
Legend:
[1] = target: HA-tagged PfCDPK1 (Plasmodium falciparum calcium-dependent protein kinase 1) (Plasmodium falciparum 3D7) (UniProt P62344); assay: SEC; late schizont lysate (TEG buffer, 0.1% NP-40, sonicated) on Superdex 200 (10 x 300 mm) in 50 mM Tris-HCl, 0.15 M NaCl, 20 mM beta-glycerol phosphate, pH 7.4, 4 °C; 1 ml fractions probed by western blot; parasites treated with vehicle or Compound 2 (2 uM, 3 h, with E-64)
[2] = target: P. falciparum cGMP-dependent protein kinase, PfPKG (Plasmodium falciparum (endogenous in cultured parasites)) (UniProt Q8I719); assay: as above

Chains of the proteins cited; added tags and fusions are not shown.
UniProt P62344: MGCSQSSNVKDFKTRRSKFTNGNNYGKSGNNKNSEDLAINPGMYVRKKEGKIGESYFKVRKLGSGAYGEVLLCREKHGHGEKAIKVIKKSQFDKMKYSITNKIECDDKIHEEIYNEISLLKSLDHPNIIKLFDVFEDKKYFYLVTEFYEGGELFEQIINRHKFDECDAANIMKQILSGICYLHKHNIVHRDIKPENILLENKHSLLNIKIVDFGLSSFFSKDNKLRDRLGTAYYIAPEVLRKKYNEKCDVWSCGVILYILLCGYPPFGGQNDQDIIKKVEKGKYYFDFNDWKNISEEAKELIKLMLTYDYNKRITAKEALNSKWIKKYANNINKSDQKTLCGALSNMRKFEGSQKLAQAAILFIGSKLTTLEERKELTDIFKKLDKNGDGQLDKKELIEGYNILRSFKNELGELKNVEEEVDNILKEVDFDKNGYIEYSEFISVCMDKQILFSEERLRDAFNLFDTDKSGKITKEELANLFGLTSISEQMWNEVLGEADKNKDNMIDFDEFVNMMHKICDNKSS
UniProt Q8I719: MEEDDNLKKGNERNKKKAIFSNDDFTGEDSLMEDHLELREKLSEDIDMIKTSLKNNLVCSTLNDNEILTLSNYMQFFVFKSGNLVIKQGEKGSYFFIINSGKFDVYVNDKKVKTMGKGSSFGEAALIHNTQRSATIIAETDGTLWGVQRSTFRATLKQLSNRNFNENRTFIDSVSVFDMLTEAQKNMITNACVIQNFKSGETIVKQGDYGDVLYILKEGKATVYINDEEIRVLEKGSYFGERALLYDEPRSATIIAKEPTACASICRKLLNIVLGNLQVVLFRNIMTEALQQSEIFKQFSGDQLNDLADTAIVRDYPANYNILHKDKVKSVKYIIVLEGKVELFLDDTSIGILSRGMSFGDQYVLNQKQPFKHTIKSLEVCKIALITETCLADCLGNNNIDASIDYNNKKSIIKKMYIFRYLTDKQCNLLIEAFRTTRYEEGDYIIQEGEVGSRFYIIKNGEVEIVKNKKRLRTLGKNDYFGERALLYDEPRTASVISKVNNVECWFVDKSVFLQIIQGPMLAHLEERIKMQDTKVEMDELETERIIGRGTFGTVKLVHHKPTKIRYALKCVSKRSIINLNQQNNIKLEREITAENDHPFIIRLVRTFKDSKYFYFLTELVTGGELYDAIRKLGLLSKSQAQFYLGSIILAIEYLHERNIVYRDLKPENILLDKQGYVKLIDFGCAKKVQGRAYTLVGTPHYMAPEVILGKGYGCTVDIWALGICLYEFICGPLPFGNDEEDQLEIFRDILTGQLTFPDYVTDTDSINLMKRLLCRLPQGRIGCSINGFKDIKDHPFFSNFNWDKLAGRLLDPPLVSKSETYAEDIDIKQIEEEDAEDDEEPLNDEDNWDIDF

P. falciparum cGMP-dependent protein kinase, PfPKG (from UniProt Q8I719 1-853) (enzyme)
binding [1]: no binding
binding [2]: no binding

Source: article PMC4507021
